Paper PMC11335299

Target: Scramb1-A-protA (Drosophila)
Test: affinity purification with mass spectrometry; Scramb1-A-ProtA expressed in the larval fat body, captured from larval extract on rabbit IgG Dynabeads (2 h, 4 °C), eluted by TEV cleavage; LC/ESI-MS/MS; control: Cg-Gal4 larvae

Binder	binding
Flotillin2 (protein, UniProt O61492 1-438) MGNIHTTGPNEALIVSGGCCGSTKKRTIVGGWAWAWWLVTDVQRLSLNVMTLNPMCENVETSQGVPLTVTGVAQCKIMKSSSYKQTDYHNDEADELLGTASEQFLGKSVKEIKQTILQTLEGHLRAILGTLTVEEVYKDRDQFAALVREVAAPDVGRMGIEILSFTIKDVYDDVQYLASLGKAQTAVVKRDADAGVAEANRDAGIREAECEKSAMDVKYSTDTKIEDNTRMYKLQKANFDQEINTAKAESQLAYELQAAKIRQRIRNEEIQIEVVERRKQIEIESQEVQRKDRELTGTVKLPAEAEAFRLQTLAQAKQCQTIEGARAEAERIRKIGSAEAHAIELVGKAEAERMRMKAHVYKQYGDAAIMNIVLESLPKIAAEVAAPLAKTDEIVLIGGNDNITNDVTRLVAQLPPSINALTGVDLSKVLSKIPGAKA	binds
Hip14 (enzyme, UniProt Q9VUW9 1-637) MYQSACQAATTGSCVPGTGQQPDNERQSALIAQQPPTAPVEPDYSGFDIVKATQYGAIARVRELVESGWDVNQPDSETVTLLHWAAINNRRDIIRYFLEKGATVDAVGGELNATPLHWATRQGHLGAVVLLMAAGADPRIRDAEGCSCIHIAAQFAHTALVAYFIAKGVDPDLQDRGGMTALMWAAWKVCALDPVRLLLTLGANPAMVDYTHGNTALHWAILARNATAISTLVLKSKASLDVPNLRGETPLSMLESQTGAIWIGAKVMDRVKEAALTSQQRRSLLSKLRHDKRLRWWSMVACPFTAFYLAGIVFTVNTLYIIKFFLLGCLYSIFHTIGKALFDEHLMALLPLSVYLATKAWFYVTWLMYIDDAVSFTATVCFLISSLLLWVCFLKSWKGDPGIIRPTREQRFKTIIELSERGGIGFEPASFCSGCLVRRPIRSKHCSVCDRCVARFDHHCPWVGNCIGLKNHSYFMGFLWMLLIMCAWMLYGGSKYYVNQCNVRFDDFLGAMRAIGNCDAWVGWVMGNALLHMSWVILLTICQTYQVICLGMTTNERMNRGRYRHFQAKGGHSPFTRGPIQNLVDFLECSCFGLVQPKRVDWMNYYDYDAQTHQTIEKEPLLSVDCPDGMAGDHQYV	binds

No constants are given. Whether binding was seen depends on the method and setting. In cells and extracts the contact can be indirect. A yes stands for co-enrichment or nearness to the bait. Other partners may have been found.
